Each structure is given as a SMILES string. Some of the results follow. Further columns of the screen follow, without active or inactive calls. The list favours compounds with an active or inconclusive main result. The note in brackets gives the kind of curve behind each potency; many fits are weak.

The assay in a line: qHTS Assay for Modulators of Lamin A Splicing. Conditions: HeLa LMNA splicing GFP/RFP minigene ratio, 48 h. Summed up: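 S3 HeLa cells stably expressing lamin A-EGFP splicing minigene plus DsRed2, 600 cells/well, 48 h compound exposure at 37C. Laser-scanning cytometry; analysed as GFP (500-530 nm)/RFP (575-640 nm) total intensity ratio; 0.5% DMSO vehicle.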
A general note: qHTS replaces the single test concentration by a dilution series.

Setting [1] is: measured here: GFP splicing reporter channel.
The mark [2] stands for this setting: measured here: RFP viability control channel.

Turning to `O=C(c1noc2c1CCCCC2)N1CCN(c2cccc(Cl)c2)CC1`, the AC50 runs as follows: under setting [1], 10 µM [falling, partial curve]; under setting [2], 0.0178 µM [falling, full curve, poor fit].

With `COc1ccccc1N1CCN(C(=O)C(C)N(c2ccc(C)c(C)c2)S(C)(=O)=O)CC1` (centres undefined), the AC50 is 35.5 µM [rising, single point] under setting [1] and 35.5 µM [rising, single point] under setting [2].

With `Cc1ccc(-c2nc(NCc3ccco3)c3ccccc3n2)cc1`, the AC50 under setting [2] was 17.8 µM [rising, partial curve].

For the compound `Cc1c(C(=O)N2CC(C)OC(C)C2)sc2nc(-c3ccccc3)cn12` (centres undefined), the AC50 was 12.6 µM [rising, partial curve] under setting [1] and 20 µM [rising, partial curve] under setting [2].

Consider `COc1ccc(NC(=O)C2CCN(C3=NS(=O)(=O)C(c4ccc(C)c(C)c4)=C3C)CC2)c(OC)c1`, for which the AC50 under setting [1] was 8.91 µM [falling, partial curve, poor fit] and the AC50 under setting [2] is 3.98 µM [falling, full curve, poor fit].

For `O=C(COc1ccc(Cl)cc1)Nc1nc(-c2cccs2)cs1`, the AC50 is 22.4 µM [rising, single point] under setting [1] and 31.6 µM [rising, single point] under setting [2].

Take `Cc1cccc(S(=O)(=O)NNC(=O)c2sc(C)nc2C)c1`: under setting [2], the AC50 is 14.1 µM [rising, single point].

As to `C=CCn1c(=O)c2c(nc(-c3ccc(S(=O)(=O)O)cc3)n2C)n(C)c1=O`, the AC50 by setting is: under setting [1], 5.62 µM [falling, partial curve, poor fit]; under setting [2], 0.158 µM [rising, full curve, poor fit].

With `COc1ccc(C(=O)n2c(C)c(CCO)c(=O)n2C)cc1`, the AC50 under setting [2] is 0.00282 µM [falling, full curve, poor fit].

Regarding `Cc1onc(-c2ccccc2)c1C(=O)Nc1cc(C(F)(F)F)ccc1N1CCOCC1`, the AC50 is 35.5 µM [falling, single point] under setting [1] and 5.62 µM [rising, single point] under setting [2].

With `O=C(c1cc2ccc3cccnc3c2[nH]1)N1CCCCC1`, the AC50 reads like this: under setting [1], 15.8 µM [falling, partial curve]; under setting [2], 20 µM [falling, partial curve, poor fit].

Regarding `CCN(CC)c1ccc(S(=O)(=O)N2CCOCC2)cc1NS(C)(=O)=O`, the AC50 under setting [1] is 0.0316 µM [falling, full curve, poor fit].

On to `Cc1nc(C)c(C(=O)N/N=C/c2ccco2)s1`, for which the AC50 was 6.31 µM [falling, single point] under setting [1] and 0.0562 µM [falling, partial curve, poor fit] under setting [2].

On to `CCOC(=O)c1c(C)[nH]c(C)c1C(=O)COC(=O)c1ccc(OC)c(OC)c1`, for which the AC50 under setting [2] was 7.08 µM [rising, partial curve].

Regarding `Cc1nnsc1C(=O)Nc1cccc(Cl)c1C`, under setting [1], the AC50 was 0.794 µM [rising, full curve, poor fit].

With `Cc1ccc(S(=O)(=O)NCC(=O)OCC(=O)Nc2ccccc2OC(F)F)cc1`, under setting [2], the AC50 was 14.1 µM [rising, partial curve, poor fit].

`CCc1cccc2c(C(=O)COC(=O)c3cccc(S(=O)(=O)N(C)C4CCCCC4)c3)c[nH]c12`: under setting [2], the half-maximal activity concentration (AC50) was 31.6 µM [rising, single point].

As to `CS(=O)(=O)Nc1cccc(-c2ccc3ncnc(N4CCOCC4)c3c2)c1`, the AC50 runs as follows: under setting [1], 14.1 µM [falling, partial curve]; under setting [2], 20 µM [falling, partial curve, poor fit].

For the compound `Cc1nn(-c2cccc(Cl)c2)c2c1C(c1cccnc1)C(C#N)=C(N)O2` (centres undefined), the AC50 under setting [2] is 22.4 µM [rising, partial curve].

Take `O=C(CC1N=C2c3ccccc3N=C(SCC(=O)Nc3ccc(F)cc3)N2C1=O)NCc1ccco1` (centres undefined): the AC50 under setting [2] is 1.12 µM [falling, single point].

With `COc1cc(Nc2ncc3c(n2)CCN(Cc2ccc(OC(C)C)c(OC)c2)C3)cc(OC)c1`, under setting [1], the AC50 is 35.5 µM [falling, partial curve, poor fit].

For `CCOC(=O)c1[nH]c2ccc(Br)cc2c1NC(=O)CCN1CCCC(C)C1` (centres undefined), the AC50 under setting [1] was 15.8 µM [rising, single point] and the AC50 under setting [2] is 11.2 µM [rising, partial curve].

In the case of `O=C(Nc1c(C(=O)NCc2ccco2)cnn1-c1ccccc1)c1cccc(F)c1`, the AC50 under setting [1] was 8.91 µM [rising, partial curve].

Regarding `CCc1nn2c(=O)cc(COC(=O)c3ccc(NC(=O)COc4ccccc4C)cc3)nc2s1`, the AC50 under setting [1] is 0.0631 µM [falling, full curve, poor fit].

`Cc1nn(C)c(C)c1S(=O)(=O)N1CCC(CO)(Cc2ccc(Cl)cc2)CC1`: under setting [2], the AC50 was 0.447 µM [falling, full curve, poor fit].

As to `COc1ccc(NC(=O)c2csnn2)cc1Cl`, the AC50 under setting [2] is 0.0447 µM [falling, full curve].

Turning to `COc1ccc(CCNc2nc(C)nc3c2oc2ccccc23)cc1OC`, the concentration at half-maximal activity (AC50) was 2 µM [rising, full curve] under setting [1] and 2.51 µM [rising, single point] under setting [2].

With `Cc1ccccc1OCc1n[nH]c(=S)n1Cc1ccccc1`, the AC50 under setting [1] was 17.8 µM [rising, partial curve] and the AC50 under setting [2] was 31.6 µM [rising, partial curve].

Take `Clc1ccc2c(c1)C1=C(C(c3ccncc3)O2)C(c2ccc(Br)cc2)n2ncnc2N1` (centres undefined): the AC50 by setting is: under setting [1], 3.98 µM [falling, full curve]; under setting [2], 12.6 µM [falling, single point].

For `CN(C)c1cccc2c1c(NC(=O)Nc1ccc(Cl)cc1Cl)nn2C`, under setting [1], the AC50 is 0.316 µM [rising, full curve, poor fit].

As to `CCOc1ccc(NC(=O)c2cc3cc(C)ccc3n2C)cc1`, under setting [2], the AC50 was 0.0141 µM [falling, full curve, poor fit].

`CCOc1ccc(NCc2nnc(SCC(=O)Nc3cc(C)on3)n2-c2ccccc2OC)cc1`: the AC50 under setting [2] was 14.1 µM [rising, single point].

For the compound `COCCN1C(=O)N[C@@H](c2ccccc2)C(C(C)=O)=C1C`, under setting [2], the AC50 was 35.5 µM [rising, single point].

Consider `CC(C)(C)NC(=O)CSc1nc2ccc(Nc3nc(N4CCOCC4)nc(N4CCOCC4)n3)cc2s1`, for which the AC50 is, setting by setting: under setting [1], 35.5 µM [falling, single point]; under setting [2], 35.5 µM [falling, single point].

In general, AC50 refers to the midpoint of the concentration-response curve, whichever way the signal moves.

The values above are taken from PubChem BioAssay AID1487 (National Center for Advancing Translational Sciences (NCATS), 2009).
